## Library screen at single concentrations

Protein sequences, listed by entry. Tags and fused reporters are not part of them. Residues count along the entry.
UniProt I6X8D2, whole entry: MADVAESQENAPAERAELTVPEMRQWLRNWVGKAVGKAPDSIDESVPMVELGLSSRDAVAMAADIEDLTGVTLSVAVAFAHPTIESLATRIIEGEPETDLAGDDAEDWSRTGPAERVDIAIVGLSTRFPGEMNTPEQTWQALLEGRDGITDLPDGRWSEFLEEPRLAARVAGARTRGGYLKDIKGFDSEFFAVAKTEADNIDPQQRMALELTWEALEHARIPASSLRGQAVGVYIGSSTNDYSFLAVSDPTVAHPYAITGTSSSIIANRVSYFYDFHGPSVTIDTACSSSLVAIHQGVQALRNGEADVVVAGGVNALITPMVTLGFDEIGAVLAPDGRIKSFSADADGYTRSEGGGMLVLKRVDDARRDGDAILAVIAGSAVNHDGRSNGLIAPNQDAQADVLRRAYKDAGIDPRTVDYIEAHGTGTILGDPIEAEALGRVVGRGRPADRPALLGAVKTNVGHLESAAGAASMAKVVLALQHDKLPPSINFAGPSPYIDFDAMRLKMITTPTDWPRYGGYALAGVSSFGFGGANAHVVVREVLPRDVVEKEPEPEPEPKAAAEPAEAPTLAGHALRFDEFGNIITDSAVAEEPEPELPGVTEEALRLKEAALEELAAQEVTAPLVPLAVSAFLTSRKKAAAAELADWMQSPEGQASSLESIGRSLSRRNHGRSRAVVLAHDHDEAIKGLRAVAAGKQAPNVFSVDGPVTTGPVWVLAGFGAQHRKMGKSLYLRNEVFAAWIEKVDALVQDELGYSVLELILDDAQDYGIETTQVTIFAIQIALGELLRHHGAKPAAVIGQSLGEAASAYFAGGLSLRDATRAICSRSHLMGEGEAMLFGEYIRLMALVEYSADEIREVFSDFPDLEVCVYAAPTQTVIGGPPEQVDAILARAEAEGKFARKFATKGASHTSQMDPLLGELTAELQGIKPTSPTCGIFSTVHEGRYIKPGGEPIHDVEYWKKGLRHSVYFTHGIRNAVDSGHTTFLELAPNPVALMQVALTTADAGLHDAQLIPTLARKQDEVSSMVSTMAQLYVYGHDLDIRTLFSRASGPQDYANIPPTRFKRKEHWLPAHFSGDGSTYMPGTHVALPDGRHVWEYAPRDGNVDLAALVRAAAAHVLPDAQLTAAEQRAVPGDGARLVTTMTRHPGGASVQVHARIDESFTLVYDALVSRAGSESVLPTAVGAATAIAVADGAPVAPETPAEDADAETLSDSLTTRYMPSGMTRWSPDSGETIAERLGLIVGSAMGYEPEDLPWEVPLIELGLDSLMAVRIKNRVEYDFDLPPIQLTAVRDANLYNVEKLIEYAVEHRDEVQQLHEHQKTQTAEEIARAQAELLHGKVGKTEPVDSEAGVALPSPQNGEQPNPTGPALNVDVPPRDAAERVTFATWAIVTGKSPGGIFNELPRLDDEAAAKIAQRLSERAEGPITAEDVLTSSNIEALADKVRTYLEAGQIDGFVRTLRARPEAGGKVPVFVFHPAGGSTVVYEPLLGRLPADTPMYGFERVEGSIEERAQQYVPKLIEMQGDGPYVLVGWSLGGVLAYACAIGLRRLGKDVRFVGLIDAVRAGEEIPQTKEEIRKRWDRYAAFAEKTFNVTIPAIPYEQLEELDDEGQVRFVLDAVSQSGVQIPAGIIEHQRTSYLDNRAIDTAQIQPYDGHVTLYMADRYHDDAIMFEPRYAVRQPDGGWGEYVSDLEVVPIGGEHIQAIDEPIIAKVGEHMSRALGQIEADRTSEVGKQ
UniProt A4I591, 1-473: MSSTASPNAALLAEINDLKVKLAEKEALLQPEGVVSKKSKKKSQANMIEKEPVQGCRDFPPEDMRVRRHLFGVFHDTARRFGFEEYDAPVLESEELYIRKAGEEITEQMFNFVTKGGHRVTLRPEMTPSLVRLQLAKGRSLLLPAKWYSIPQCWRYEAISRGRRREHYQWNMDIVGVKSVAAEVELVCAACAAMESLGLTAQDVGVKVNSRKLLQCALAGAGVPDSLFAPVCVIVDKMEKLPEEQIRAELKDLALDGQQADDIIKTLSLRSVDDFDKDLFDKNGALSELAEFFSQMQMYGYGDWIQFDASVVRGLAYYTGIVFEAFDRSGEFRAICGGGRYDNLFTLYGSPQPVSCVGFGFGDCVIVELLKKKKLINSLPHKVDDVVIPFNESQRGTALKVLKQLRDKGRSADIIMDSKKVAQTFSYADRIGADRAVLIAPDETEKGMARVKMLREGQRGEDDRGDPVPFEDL

From ChEMBL document CHEMBL3988442, “University of Dundee, Small-Polar-MMV Screening Library” (2021).

Leishmania in macrophages: 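Cell assay of Leishmania donovani living inside macrophages; the read-out is not stated. Tested at 30 µM. Higher reads as stronger inhibition (inferred: compounds with an IC50 in retests scored well above the rest). Size under these conditions: about 69,000 compounds, about 1,000 of them at 50% or above in at least one test.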
Pks13 thioesterase: 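Polyketide synthase Pks13, Mycobacterium tuberculosis (UniProt I6X8D2). Enzyme assay of the thioesterase domain of polyketide synthase 13; the read-out is not stated. Concentration: 30 µM. The record gives no direction; the compounds picked for IC50 retests had high values, so higher reads as stronger inhibition. About 67,000 compounds were tested under these conditions; 0.46% (about 300) showed 50% or more at least once.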
LiHisRS: 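Histidine-tRNA ligase, Leishmania infantum (UniProt A4I591). Enzyme assay of histidyl-tRNA synthetase; the read-out is not stated. Tested at 30 µM. Higher reads as stronger inhibition (inferred: compounds with an IC50 in retests scored well above the rest). The assay is labelled LdHisRS but filed under L. infantum. Of about 69,000 compounds tested this way, about 410 (0.6%) reached 50% or more in at least one test.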

The filed quantity is “Percent Effect” (%).
The record does not define 0% and 100%; most values in the screen are far below 50% and negative numbers occur (in some assays of this library far below -100).
The compounds are a random part of those screened.
Two or more numbers in one place are separate tests of the same structure; such repeats can differ widely.
A dash means the value is not listed here; it may have been measured.

compound | Leishmania in macrophages | Pks13 thioesterase | LiHisRS
CN1CCC(C(=O)N2CCC(c3ccc4c(N)n[nH]c4n3)CC2)CC1 | -4.428 | 3.754 | 4.225
CCOCC1CN(C(=O)c2ccsc2)Cc2nn(C)cc21 (stereo unspecified) | 3.619 | -32.8 | 8.571
CSc1nccc(N2CCC3(CCCN(Cc4ccc(F)cc4)C3)C2)n1 (stereo unspecified) | 14.67 | 15.1 | 31.86
COc1ncc(CN(CCN(C)C)Cc2ccc(C)s2)cn1 | 1.942 | 7.955 | -2.564
CCCSCC(=O)NS(=O)(=O)c1ccc2c(c1)OCCO2 | 12.46 | -18.57 | 8.8
O=C(NCCNc1ncccn1)C1CCCC1 | -5.953 | -14.35 | 8.929
CCOc1ccc(CN2CCN(CCOC)[C@@H]3CS(=O)(=O)C[C@@H]32)cc1 | - | -13.92 | 25
Cc1cnc(N2CCCC3(CCN(Cc4csc(C)n4)C3=O)C2)nc1.O=C(O)C(F)(F)F.O=C(O)C(F)(F)F (stereo unspecified) | -6.791 | - | -
COc1ccc(C(=O)N2CC[C@@H](N3CCC(O)CC3)[C@H](O)C2)cc1C | -2.565 | -32.82 | 10.26
Cc1nc(C2CCCNC2)nc2c1CCCN2Cc1ccccn1 (stereo unspecified) | - | 5.058 | -26.95
CC(C)n1[nH]c(=O)c2c1NC(=O)CC2c1cccc2cccnc12 (stereo unspecified) | 1.474 | -22.68 | 0
Cc1ccc(OCc2occc2C(=O)O)cc1 | -9.979 | 2.93 | 5.31
Cc1ccc(N2N=C(C(=O)O)S(=O)(=O)c3cccnc32)cc1 | 25.8 | -14.22 | 15.22
[H][C@@]12CCC(=O)N(CC3CCNCC3)[C@]1([H])CCN(Cc1cnn(C)c1)C2 | 16.61 | - | -
Cc1ccoc1C(=O)N1CCC(n2cc(-c3ccsc3)nn2)CC1 | 15.4 | -17.5 | 14.52
[H][C@]12CN(c3cc(C#N)ccn3)CC[C@@]1(O)CCN(S(C)(=O)=O)C2 | 44.08 | - | -
CNS(=O)(=O)c1cc(C(=O)N(C)Cc2sccc2C)c(C)o1 | -4.437 | -12.22 | 2.74
CCCc1cc(NC(=O)c2ccc(Cl)c(N3CCNC3=O)c2)n[nH]1 | -14.45 | -15.37 | -8.219
COc1cc(Cc2nc3c([nH]2)CC(C)(C)CNC3=O)cc(OC)c1 | -12.81 | -14.91 | 16.87
O=C(c1ccc2c(c1)CCCC2)N1CCCC(n2cncn2)C1 (stereo unspecified) | 13.22 | -2.265 | 6.25
Cc1cc(C(=O)NC(COCC(C)C)c2ccco2)no1 (stereo unspecified) | 10.39 | -16.89 | -0.8772
Cc1cccc(C)c1OCCCN1CCN(CC2CCCO2)CC1 (stereo unspecified) | -7.481 | -16.35 | 20.54
CC(C)NC(=O)C1CCc2nnc(CNC(=O)c3ccc(Cl)cc3Cl)n21 (stereo unspecified) | -5.079 | -0.9207 | 5.517
Cc1nc(-c2ccc(Cl)s2)sc1C(=O)NCCCC(N)=O | -1.001 | 54.87 | 9.174
Cc1nc(N(C)C)nc(-c2cccc(-c3ccn(CCCF)n3)c2)c1C | -3.93 | 44.44 | 4.762
Cn1ccc(C(=O)NC2CCC23CCN(Cc2ccc(F)cc2)CC3)c1.O=C(O)C(F)(F)F (stereo unspecified) | 6.798 | - | -
CCc1nc(CN(C)C2CCN(CC(=O)N(C)C)C2)no1 (stereo unspecified) | 21.39 | 0.4691 | 8.929
O=C(NCCCN1CCOCC1)c1ccn(-c2ccc3ccccn23)n1 | - | - | 25.49
c1cc2c(cc1Cn1cc(C3CCOC3)nn1)CCCO2 (stereo unspecified) | 25.44 | -11.85 | 24.49
Cc1cc(C)n(CC2CCCCN2C(=O)c2ccc3nncn3c2)n1 (stereo unspecified) | -20.01 | -13.78 | 17.57
O=C(N1CCC(O)(C(F)(F)F)C1)C1(c2ccc(Cl)cc2)CC1 (stereo unspecified) | -6.071 | -9.593 | 11.4
Cc1cc(NC(=O)C2CN(Cc3ccccc3)CCO2)ccn1 (stereo unspecified) | 28.77 | -5.596 | 6.25
CC(O)CN1CCN(C(=O)c2ccn(-c3cccc(Cl)c3)n2)CC1 (stereo unspecified) | -20.28 | -12.94 | -2.74
CC(=O)NCCNC(=O)c1cc(Br)c2c(c1)OCCO2 | 12.96 | -31.64 | 14.52
Cc1ccccc1CSc1nc(N)cc(N2CC[C@@H](O)C2)n1 | 7.013 | -19.81 | 32.08
CCOCC1CCN(C(=O)Nc2ccc(-c3csnn3)cc2)C1 (stereo unspecified) | -4.056 | 7.188 | 6.25
Cc1cccc(C(=O)N2CC(C(=O)NCC3CC3)C3(CCOCC3)C2)n1.O=C(O)C(F)(F)F (stereo unspecified) | 18.67 & -0.363 | - | -
COc1ccc(NC(=O)c2cnc(N3CCN(C)CC3)nc2C)cc1 | 26.28 | -8.11 | 11.96
COCCC(=O)N(CCC#N)c1ccc(C)c(C)c1 | 10.98 | -36.05 | 7.254
CN(C)[C@@H]1CO[C@H](CNC(=O)Nc2ccccc2)[C@H]1O | 22.41 | -25.96 | 22.97
O=C(Nc1cnccn1)[C@@H]1COC[C@H]2CN(c3ncc(F)cn3)C[C@H]21 | - | -18.65 | 15.38
CCO[C@H]1COC[C@@H]1NC(=O)c1c[nH]nc1C1CCCCC1 | -21.39 | 9.443 | -3.333
FC(F)(F)Cn1nnnc1SCCN1CCCCC1 | 29.63 | -30.9 | 0
CO[C@@H]1CCC[C@@H](NC(=O)c2cccc(F)c2)[C@H]1O | -10.95 | 3.375 | 15.38
COc1cccc(S(=O)(=O)NC(=O)COc2c(C)cccc2C)c1 | 5.752 | -0.5425 | 2.74
COCC(=O)N1CCCCC1c1ccncn1 (stereo unspecified) | 2.704 | -31 | -6
Cn1cccc1C(=O)N1CC[C@H]2C[C@@H](c3ccncn3)O[C@@H]2C1 | - | -30.29 | 13.53
Cc1ccc(C)c(OCc2nnc(SCC3CCCN(C)C3)o2)c1 (stereo unspecified) | 38.43 | -10.44 | 14.91
CN(C)CCNC(=O)C1Cc2nc(-c3ccccc3)sc2N1CC1CC1.O=C(O)C(F)(F)F (stereo unspecified) | -20.29 | - | -
Cc1ncc(CN2CCCC2)c2cc(C(=O)c3ccc(Br)cc3)oc12 | - | -4.912 | 45.65
COc1ccc(-n2nnc(C(=O)O)c2-c2ccccn2)cc1 | 6.234 | 6.324 | 7.895
Cc1nn(C)c2nc(NCCCN3CCCC(CO)C3)sc12 (stereo unspecified) | 46.08 | -13.29 | 27.17
CCNC(=O)N1CC[C@@H](CC(=O)O)[C@@H](CC2=NCCc3ccccc32)C1 | 1.742 | 7.45 | 5.556
COc1cc(CNC(=O)Nc2nnc(C(C)C)s2)ccc1O | 21.04 | -9.585 | 14.29
Cc1cc(C)n(C2CCCN(C(=O)Cc3ccc(C#N)cc3)C2)n1 (stereo unspecified) | 0.348 | 0.5745 | 8.475
COCCN(Cc1cccnc1)S(=O)(=O)c1cc(C)ccc1F | 1.863 | -2.638 | 11.61
[H][C@@]12COC[C@]1([H])[C@H](OCc1csc(C)n1)CN2Cc1ccco1 | 20.68 | - | -
CSc1cccc(CN(C)C(=O)Cn2ncc(N3CCCC3)cc2=O)c1 | -8.256 | 35.22 | 11.48
O=C(c1cnc2ccc(F)cc2c1NCc1ccco1)N1CCCC1 | 12.27 | -8.097 | 18.68
CCCc1nc(C)cc(NC(C)Cc2cnccn2)n1 (stereo unspecified) | 25.36 | 9.135 | 9.167
Cc1nc(C2CCCN(C(=O)c3ccc(N4CCCC4)nn3)C2)no1 (stereo unspecified) | 29.54 | -4.897 | 1.786
CCN(CC)CCn1cc(NC(=O)CNc2ccccc2OC)cn1 | -20.74 | 17.19 | -1.667
COC(=O)N1CCCC(C(=O)NCCc2c[nH]c3cc(C)ccc23)C1 (stereo unspecified) | 6.757 | 2.056 | 10.87
CN(Cc1ccncc1)C1CC2(CCN(c3ncccn3)CC2)C1.O=C(O)C(F)(F)F.O=C(O)C(F)(F)F.O=C(O)C(F)(F)F | 27.87 | - | -
COc1ccc(S(=O)(=O)Nc2cccnc2-n2cncn2)c(C)c1 | 7.767 | -12.7 | 11.11
CN1CCN(Cc2n[nH]c(=O)n2CC2CCCCC2)CC1 | 1.333 | -24.52 | 23.08
Cc1nc(C)n(CC2CCCN(Cc3nnc(-c4ccco4)o3)C2)n1 (stereo unspecified) | 3.876 | -27.22 | 11.43
CC(C)NC(=O)Nc1ncc(-c2cccnc2)s1 | 13.86 | -5.529 | 9.929
O=C(Nc1cccnc1)[C@@H]1C[C@H]2OCC[C@H]2N(Cc2ccsc2)C1 | - | -8.638 | 15.69
CCCS(=O)(=O)NC(C)C(=O)NCc1ccc(N2CCN(C)CC2)nc1 (stereo unspecified) | 6.71 | -6.562 | 7.895
NC(=O)C1CCN(C(=O)c2cccc(OCc3cscn3)c2)CC1 | 15.15 | -38.81 | 0

For reference, 6 entries once more:

| compound | Leishmania in macrophages | Pks13 thioesterase | LiHisRS |
|---|---|---|---|
| `c1cc2c(cc1Cn1cc(C3CCOC3)nn1)CCCO2` (stereo unspecified) | 25.44 | -11.85 | 24.49 |
| `COc1ccc(C(=O)N2CC[C@@H](N3CCC(O)CC3)[C@H](O)C2)cc1C` | -2.565 | -32.82 | 10.26 |
| `[H][C@@]12COC[C@]1([H])[C@H](OCc1csc(C)n1)CN2Cc1ccco1` | 20.68 | - | - |
| `Cc1nn(C)c2nc(NCCCN3CCCC(CO)C3)sc12` (stereo unspecified) | 46.08 | -13.29 | 27.17 |
| `NC(=O)C1CCN(C(=O)c2cccc(OCc3cscn3)c2)CC1` | 15.15 | -38.81 | 0 |
| `CN1CCN(Cc2n[nH]c(=O)n2CC2CCCCC2)CC1` | 1.333 | -24.52 | 23.08 |